In PubChem BioAssay AID1347423 (Functional Genomics Laboratory (NCATS/FGL), 2020) one finds z-score data, which are given here for 66 sequences.

In all, about 52,000 sequences went through this assay and about 210 (0.4%) were called active.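 How the source made its calls: active means gene whose silencing raises cell survival under the drug, median off-target-corrected z-score across its silencing RNAs 2 or more; inactive means the rest.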 Some of the results follow.

The assay can be described thus: Resistance to Poly (ADP-Ribose) Polymerase inhibitor: Gene Identification via Genome-wide siRNA Screen. The settings on record: mouse BRCA2 R2336H ES cells, olaparib, CellTiter-Glo viability; active compounds read high. The essentials:
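Mouse BRCA2 R2336H ES cells were reverse-transfected with siRNA (20 nM final), treated at 48 h with 500 nM olaparib, and read by CellTiter-Glo after 72 h. Scores: MAD-based z per siRNA, median per gene, seed off-target correction.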
Consider “CGUGGCUAAACAAAGAGCUTT against 2810453L12Rik”, for which the z-score was inactive: 2.38.
To “GGAAUUCUCUAUACCAAGATT against A630033H20Rik” belongs inactive: -1.26; to CCUAAUGUAGUUGUCUCUUTT against Rbp3, inactive: -1.34; to GCACUGUUUGUCAAGAAUGTT against Cdc42ep4, inactive: -0.697.
With GGAUUUUGUUCUUACAGUUTT against Nfia, the z-score was inactive: 0.677.
To “GGAAUUUUGGUAGGUUUUATT against 4930577M16Rik” belongs inactive: 0.873; to “GAUGCAGCAGCCAUAAGAATT against Defcr-rs12”, inactive: -0.997; to GGCUCAGGUGUUCAAGAUATT against Cd109, inactive: 0.108.
To “GGCAGAAGUCCAACUUCUUTT against A530088H08Rik” belongs inactive: 1.21; to GGACGUGUUUUACAAAUACTT against Sfrs1, inactive: -2.33; to GGAAGAGCUCAUGAAGCUGTT against Foxi1, inactive: -0.288.
To “GUUUCAGCCUGAGUGACAATT against 2900009I07Rik” belongs inactive: -0.837.
Take CACCUUCAUUUUUGAAAUCTT against Krt2-6a: the z-score is inactive: -0.393.
Regarding GGGUUAUAAUGAAAAUCCUTT against Cabp5, the z-score was inactive: 0.502.
With GGGUUUGACAGAGAGAAGATT against Atp5g2, the z-score is inactive: -1.06.
As for GCUAAACAUUAGGUAAAGGTT against Cyp24a1, the z-score was inactive: 0.654.
To GGUGGCUAUAACAGAGCCUTT against AY053573 belongs inactive: -0.327; to GAUGUACUUCUUUGUAGCUTT against Olfr398, inactive: 1.06.
As to GGUACUCCCUAAAUCUAAGTT against Zbtb8, the z-score was inactive: -0.596.
On to GAUGCCUUUUAUGGGUGCATT against Olfr61, for which the z-score is inactive: -1.65.
Take GCGAGCUUAUAGGUUCGUGTT against Spop: the z-score was inactive: -0.502.
Turning to GCAAUAACCUGGUAGGCUCTT against Fxyd6, the z-score was inactive: -0.449.
In the case of GGGCAAAAUUUUACUAAUCTT against Ppp1r9b, the z-score is inactive: 0.786.
To GGACUAUGAGCAGAUGAAGTT against Calcb belongs inactive: -1.61; to GGAAGUUCGCUUGGUACCGTT against Snrpb2, inactive: 2.68; to GGUUAAUGAGCUCUGUAAATT against Pknox1, inactive: -0.62.
Consider CGGGAGUAUCUGCUUCAGUTT against Ndufb4, for which the z-score was inactive: 1.35.
For the sequence CCACCAACUACAGAACAUATT against BC016548, the z-score is inactive: -0.318.
As to GCAGUGAUCCGGAACAAAUTT against Tmc3, the z-score was inactive: -0.806.
To “GGUGCUGACUCCGACUAAATT against D10Bwg0940e” belongs inactive: 0.441.
For the sequence GGUAAUAAUCUCCUAGAGUTT against Bach1, the z-score was inactive: 0.532.
Next, GGAGCUAUGUUCAGUUCUUTT against Qscn6: inactive: -1.03; GGUCAGCAGCCCAAACAUUTT against Ubl3: inactive: -0.463; CCAGCUCUAGUUUUUAAUCTT against Coq3: inactive: 0.642.
Take “GCUAAUUCAAGAGGAACUATT against 4932411G06Rik”: the z-score is inactive: -0.108.
Next, CCAACCUGCGCGACUGCCGTT against Sts: inactive: -0.518.
Next, GGAAUGAAGUCUGUCUUCGTT against Zdhhc7: inactive: -0.175; GGACAGAUAGGAUUAGAGATT against Igfbp5: inactive: 0.0163; CCCUGAAUGUUCGAGGAGATT against D11Lgp1e: inactive: -0.446.
CCUUGAUGUAGCAGGUUUGTT against Aoc2: the z-score is inactive: 1.53.
To GGUCAUGCAGGUUUUGAAUTT against AL033314 belongs inactive: -0.69; to GCUCCAAUAACAUGAGUAGTT against AW125688, inactive: -2.4.
To GGCAACAUUAGAAGACAGUTT against Tfb1m belongs inactive: -0.803; to CCUGGUGAAGCUAAUCACCTT against Adamts13, inactive: -2.41.
Next, GCCUGACUUUAUGGUAAAATT against Mnat1: inactive: 0.585.
For the sequence CGGAGUAACUCAACUAACATT against Tcte2, the z-score is inactive: -2.34.
Take GGGCGAUAUUAUGAGCAACTT against Atp1b2: the z-score is inactive: 1.54.
To GGAUCCGUUUUGGUGGAAUTT against Enpp4 belongs inactive: 1.83.
Next, GCCUUACAUGAGCCCAUGUTT against Olfr550: inactive: -0.448; GGAUAAAUGUCGUUAUAACTT against Zdhhc17: inactive: 0.527; GGCACUGAAAAUAUAUUUGTT against Cs: inactive: -0.0447.
GCUCUCCAUUACGUGCUUGTT against Rnu3ip2: the z-score was inactive: -0.988.
To GGAACUCCAGCAACUGCCATT against Plpi belongs inactive: -1.15; to GCGACCUUGAAUGGAUUCGTT against Rps29, inactive: -0.8.
With GGUGAUCAGUGCCUACAGATT against BC024868, the z-score was inactive: -0.5.
Next, “GGGAAAGGAAGAUGAUAUCTT against 4930511H01Rik”: inactive: 0.26; CCCAAUUCCUUAACUAUUATT against Cd209a: inactive: 0.697.
GGUGAACUUGGCAGAGCUGTT against Prdx5: the z-score was inactive: -1.25.
UCCUUCAUUUGAAUGCAAGTT against Hist3h2bb: the z-score was inactive: -0.184.
Next, “GGAGCUCCUUAUGAAACUGTT against 2310050B20Rik”: inactive: -1.09; “GGAGCUACCUGCAUGAUGATT against 4930546H06Rik”: inactive: 0.722; “CCACAGACCUCACUUUUGGTT against 2810410M20Rik”: inactive: -1.66.
To GUAUCAGCCGAGCAACAUCTT against Mrpl34 belongs inactive: -0.232.
Next, CGCCAUCCCAUGUUACUCUTT against Papss2: inactive: -0.585; GGCCACAUUGUCCUAUCAGTT against Cdh16: inactive: 1.37.
GUUUGGAGUGAUGAUUGAGTT against Pla2g2e: the z-score was inactive: -0.182.
